For part of these data: The comparison behind a weaker result is the experiment's own reference, which may not be listed here. Where a protein sequence is shown, tags need not be part of it. Construct, isoform or probe ends are uncertain for at least one entry. For part of these data: At least one verdict was read from the data and is not stated in words by the source. For part of these data: Whether high values mean tight binding is not given here for every scale.
How the values were obtained:
Test in all cases: EMSA
[1] = target: T1, Ets-2 360-464 (core Ets domain) (Homo sapiens) (UniProt P15036); settings: EMSA: 50 mM Tris-HCl pH 7.5, 25 mM NaCl, 50 mM L-arginine-HCl, 0.5 mM EDTA, 0.1% Tween 20, 2 mM DTT, 5% glycerol, room temperature 15 min, recombinant protein, residues 360-464, protein details: His tag removed by TEV, label: 5'-32P on strand 1
T1 sequence (looked up): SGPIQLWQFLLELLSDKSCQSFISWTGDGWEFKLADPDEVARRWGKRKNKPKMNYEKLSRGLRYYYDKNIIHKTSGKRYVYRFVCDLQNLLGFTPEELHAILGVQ

[2] = target: T2, Ets-2 325-464 (core Ets and autoinhibition domains) (Homo sapiens) (UniProt P15036); settings: EMSA: 50 mM Tris-HCl pH 7.5, 25 mM NaCl, 50 mM L-arginine-HCl, 0.5 mM EDTA, 0.1% Tween 20, 2 mM DTT, 5% glycerol, room temperature 15 min, recombinant protein, residues 325-464, protein details: His tag removed by TEV, label: 5'-32P on strand 1
T2 sequence (looked up): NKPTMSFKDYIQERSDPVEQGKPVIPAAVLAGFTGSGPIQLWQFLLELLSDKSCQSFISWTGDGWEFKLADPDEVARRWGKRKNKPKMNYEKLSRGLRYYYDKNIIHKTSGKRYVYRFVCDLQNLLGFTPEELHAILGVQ

[3] = target: T3, Ets-1 medium (equivalent of Ets-2 325-464) (Mus musculus) (UniProt P27577); settings: EMSA: 50 mM Tris-HCl pH 7.5, 25 mM NaCl, 50 mM L-arginine-HCl, 0.5 mM EDTA, 0.1% Tween 20, 2 mM DTT, 5% glycerol, room temperature 15 min; recombinant protein; protein details: His tag removed by TEV; label: 5'-32P on strand 1
T3 sequence (looked up, limits assumed): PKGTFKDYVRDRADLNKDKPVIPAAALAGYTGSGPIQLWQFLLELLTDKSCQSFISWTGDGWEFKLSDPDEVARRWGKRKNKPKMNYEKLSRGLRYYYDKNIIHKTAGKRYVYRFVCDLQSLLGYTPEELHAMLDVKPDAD

[4] = target: T4, Ets-2 308-469 (core, autoinhibition and serine-rich) (Homo sapiens) (UniProt P15036); settings: serine-rich region present; EMSA: 50 mM Tris-HCl pH 7.5, 25 mM NaCl, 50 mM L-arginine-HCl, 0.5 mM EDTA, 0.1% Tween 20, 2 mM DTT, 5% glycerol, room temperature 15 min; recombinant protein; residues 308-469; protein details: His tag removed by TEV; label: 5'-32P on strand 1
T4 sequence (looked up): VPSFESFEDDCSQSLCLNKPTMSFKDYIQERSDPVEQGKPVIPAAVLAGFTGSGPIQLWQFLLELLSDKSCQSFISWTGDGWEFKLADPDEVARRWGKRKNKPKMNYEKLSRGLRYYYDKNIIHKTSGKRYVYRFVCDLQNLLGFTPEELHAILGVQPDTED

[5] = single and super-shifted species, lower apparent affinity than single site
[6] = almost identical to 7-bp, data not shown

AGCGGAAGTGACTTCCGGA (double strand) [palindrome 5-bp spacer]
binding result ([1]; no super-shifted band, lower apparent affinity than single site): binds more weakly
binding result ([2]; non-cooperative, 1:1 only, no super-shift, lower apparent affinity than single site): binds more weakly

AGCGGAAGTACTTCCGGA (double strand) [palindrome 4-bp spacer]
binding result ([1]; lower apparent affinity than single site): binds more weakly
binding result ([2]; exclusively cooperative, presumed 2:1, lower apparent affinity than single site): binds more weakly

ATCTCACCGGAAGTGTAGCA (double strand) [single-site EMSA probe]
binding signal (fold reduction in affinity vs P4) [3]: 5
binding signal (fold inhibition) [4]: 10
binding signal (fold Kd vs P1) ([2]; no noticeable difference from construct without N-terminal module): 1

AGCGGAAGTGCACTTCCGGA (double strand) [palindrome 6-bp spacer]
binding result [1, 5]: binds more weakly
binding result ([2]; 1:1 and 2:1, some cooperativity, lower apparent affinity than single site): binds more weakly

AGCGGAAGTGACACTTCCGGA (double strand) [palindrome 7-bp spacer]
binding result [1, 5]: binds more weakly

AGCGGAAGTGATCACTTCCGGA (double strand) [palindrome 8-bp spacer]
binding result [1, 6]: binds more weakly
binding result [2, 6]: binds more weakly
